Experimental data published in the supplement of paper PMC11732987, “Enantioselective OTUD7B fragment discovery through chemoproteomics screening and high-throughput optimisation” (Communications Chemistry, 2025).
Some of the results follow. The data scatter; read single values as rough.

By UniProt entry, the sequences of proteins in these tests, tags left out. Where a name states a change or a piece, a line headed by the entry shows the natural chain unless it says otherwise. Residues count along the entry.
UniProt Q7RTV0, whole entry, looked up: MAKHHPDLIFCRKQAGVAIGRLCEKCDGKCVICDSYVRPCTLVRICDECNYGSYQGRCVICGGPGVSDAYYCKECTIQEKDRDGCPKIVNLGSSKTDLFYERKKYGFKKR
UniProt P16885: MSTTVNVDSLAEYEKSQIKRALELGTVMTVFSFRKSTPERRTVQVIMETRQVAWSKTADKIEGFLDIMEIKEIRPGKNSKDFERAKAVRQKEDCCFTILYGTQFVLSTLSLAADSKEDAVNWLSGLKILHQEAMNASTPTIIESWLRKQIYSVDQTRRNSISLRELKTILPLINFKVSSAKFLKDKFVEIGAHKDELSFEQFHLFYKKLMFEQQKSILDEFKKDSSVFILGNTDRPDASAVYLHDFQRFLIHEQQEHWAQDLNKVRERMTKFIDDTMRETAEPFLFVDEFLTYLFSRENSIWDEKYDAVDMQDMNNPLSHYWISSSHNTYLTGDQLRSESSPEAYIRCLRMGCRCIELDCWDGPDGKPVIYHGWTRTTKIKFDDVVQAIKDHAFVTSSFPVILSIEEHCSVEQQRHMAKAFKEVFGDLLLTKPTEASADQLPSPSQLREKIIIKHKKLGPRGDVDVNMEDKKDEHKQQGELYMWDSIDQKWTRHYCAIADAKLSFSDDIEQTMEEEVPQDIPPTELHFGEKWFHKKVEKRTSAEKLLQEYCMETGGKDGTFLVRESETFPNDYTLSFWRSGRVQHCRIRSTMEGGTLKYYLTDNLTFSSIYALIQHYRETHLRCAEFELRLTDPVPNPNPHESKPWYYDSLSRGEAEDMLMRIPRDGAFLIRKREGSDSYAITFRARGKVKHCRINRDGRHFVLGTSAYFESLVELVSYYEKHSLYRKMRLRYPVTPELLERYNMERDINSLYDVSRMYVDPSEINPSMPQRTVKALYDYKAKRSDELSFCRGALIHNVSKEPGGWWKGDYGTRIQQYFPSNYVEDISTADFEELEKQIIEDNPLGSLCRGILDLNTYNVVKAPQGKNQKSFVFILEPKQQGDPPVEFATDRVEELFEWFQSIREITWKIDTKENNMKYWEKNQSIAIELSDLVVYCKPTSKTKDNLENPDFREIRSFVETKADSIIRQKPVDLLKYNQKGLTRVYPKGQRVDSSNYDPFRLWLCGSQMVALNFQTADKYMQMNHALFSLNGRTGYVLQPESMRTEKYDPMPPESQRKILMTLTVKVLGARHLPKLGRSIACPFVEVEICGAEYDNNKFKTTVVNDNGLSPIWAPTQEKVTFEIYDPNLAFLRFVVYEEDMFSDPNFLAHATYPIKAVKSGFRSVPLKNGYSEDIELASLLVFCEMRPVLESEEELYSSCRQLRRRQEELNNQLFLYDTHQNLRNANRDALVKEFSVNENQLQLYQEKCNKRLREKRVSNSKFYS
UniProt Q8NEB9, whole entry, looked up: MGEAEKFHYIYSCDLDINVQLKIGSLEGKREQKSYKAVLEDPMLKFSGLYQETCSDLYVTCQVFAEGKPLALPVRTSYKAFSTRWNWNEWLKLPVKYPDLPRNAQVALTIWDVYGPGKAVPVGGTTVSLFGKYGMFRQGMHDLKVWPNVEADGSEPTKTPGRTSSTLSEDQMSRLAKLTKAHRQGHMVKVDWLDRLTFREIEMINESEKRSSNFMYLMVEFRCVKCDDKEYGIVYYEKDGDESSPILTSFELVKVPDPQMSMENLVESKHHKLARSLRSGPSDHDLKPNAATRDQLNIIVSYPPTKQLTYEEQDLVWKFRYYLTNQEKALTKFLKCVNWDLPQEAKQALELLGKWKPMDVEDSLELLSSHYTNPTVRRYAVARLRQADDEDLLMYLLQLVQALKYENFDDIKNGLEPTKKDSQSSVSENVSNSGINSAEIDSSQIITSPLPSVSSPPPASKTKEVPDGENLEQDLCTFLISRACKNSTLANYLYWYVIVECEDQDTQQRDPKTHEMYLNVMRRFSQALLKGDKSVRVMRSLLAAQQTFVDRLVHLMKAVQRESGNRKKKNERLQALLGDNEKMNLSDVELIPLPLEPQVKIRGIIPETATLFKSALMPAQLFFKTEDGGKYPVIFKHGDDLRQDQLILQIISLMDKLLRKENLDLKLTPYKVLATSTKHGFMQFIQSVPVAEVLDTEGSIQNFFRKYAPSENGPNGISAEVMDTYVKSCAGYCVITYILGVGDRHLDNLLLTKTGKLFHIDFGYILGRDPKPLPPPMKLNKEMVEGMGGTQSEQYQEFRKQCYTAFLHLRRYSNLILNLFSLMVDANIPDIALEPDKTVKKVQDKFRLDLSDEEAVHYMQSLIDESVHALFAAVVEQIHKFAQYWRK
UniProt Q92576, 328-355: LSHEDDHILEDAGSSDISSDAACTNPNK
UniProt O95602, whole entry, looked up: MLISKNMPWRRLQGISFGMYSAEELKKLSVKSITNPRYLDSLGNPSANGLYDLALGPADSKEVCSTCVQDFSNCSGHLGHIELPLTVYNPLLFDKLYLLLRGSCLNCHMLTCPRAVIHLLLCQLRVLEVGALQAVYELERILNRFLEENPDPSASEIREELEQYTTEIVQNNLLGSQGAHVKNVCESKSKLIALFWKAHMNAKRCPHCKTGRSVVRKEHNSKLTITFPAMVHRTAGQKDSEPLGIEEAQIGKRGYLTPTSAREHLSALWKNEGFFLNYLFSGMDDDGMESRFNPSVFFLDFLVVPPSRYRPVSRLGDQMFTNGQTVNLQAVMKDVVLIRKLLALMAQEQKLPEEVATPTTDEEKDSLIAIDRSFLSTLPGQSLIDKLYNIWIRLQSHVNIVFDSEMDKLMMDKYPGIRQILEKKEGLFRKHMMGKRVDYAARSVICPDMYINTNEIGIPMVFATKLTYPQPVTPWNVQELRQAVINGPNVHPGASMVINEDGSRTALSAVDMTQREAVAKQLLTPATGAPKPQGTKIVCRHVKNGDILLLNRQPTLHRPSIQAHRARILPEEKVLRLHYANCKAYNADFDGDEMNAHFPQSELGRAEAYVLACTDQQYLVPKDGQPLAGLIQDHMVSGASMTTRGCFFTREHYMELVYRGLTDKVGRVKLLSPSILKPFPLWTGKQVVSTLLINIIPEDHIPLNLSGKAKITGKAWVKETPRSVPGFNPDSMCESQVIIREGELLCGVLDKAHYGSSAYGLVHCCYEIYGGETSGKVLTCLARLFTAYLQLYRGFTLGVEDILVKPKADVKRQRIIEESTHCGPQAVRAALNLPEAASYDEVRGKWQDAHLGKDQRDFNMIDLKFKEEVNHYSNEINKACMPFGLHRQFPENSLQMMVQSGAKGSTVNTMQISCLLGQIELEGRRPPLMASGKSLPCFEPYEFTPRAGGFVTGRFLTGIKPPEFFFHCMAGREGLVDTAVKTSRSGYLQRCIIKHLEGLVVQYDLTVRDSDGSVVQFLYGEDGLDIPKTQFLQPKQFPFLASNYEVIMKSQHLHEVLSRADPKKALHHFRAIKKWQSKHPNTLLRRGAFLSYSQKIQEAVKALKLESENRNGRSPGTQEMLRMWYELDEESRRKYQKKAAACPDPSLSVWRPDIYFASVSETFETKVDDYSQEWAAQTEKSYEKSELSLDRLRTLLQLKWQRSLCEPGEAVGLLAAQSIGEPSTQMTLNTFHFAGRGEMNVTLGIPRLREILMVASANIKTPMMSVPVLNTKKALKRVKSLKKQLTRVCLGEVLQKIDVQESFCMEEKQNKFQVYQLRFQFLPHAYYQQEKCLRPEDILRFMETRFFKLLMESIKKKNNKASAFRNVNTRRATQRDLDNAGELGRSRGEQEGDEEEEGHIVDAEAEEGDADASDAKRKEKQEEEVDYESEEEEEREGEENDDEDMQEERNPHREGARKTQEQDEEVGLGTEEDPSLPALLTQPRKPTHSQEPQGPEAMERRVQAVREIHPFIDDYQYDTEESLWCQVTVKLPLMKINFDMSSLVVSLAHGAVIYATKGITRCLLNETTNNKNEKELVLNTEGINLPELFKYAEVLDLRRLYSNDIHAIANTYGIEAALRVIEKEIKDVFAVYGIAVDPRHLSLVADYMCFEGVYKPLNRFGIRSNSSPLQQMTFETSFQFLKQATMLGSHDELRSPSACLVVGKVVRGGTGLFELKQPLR
UniProt P78337, 66-86: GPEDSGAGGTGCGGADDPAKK
UniProt Q8IWS0: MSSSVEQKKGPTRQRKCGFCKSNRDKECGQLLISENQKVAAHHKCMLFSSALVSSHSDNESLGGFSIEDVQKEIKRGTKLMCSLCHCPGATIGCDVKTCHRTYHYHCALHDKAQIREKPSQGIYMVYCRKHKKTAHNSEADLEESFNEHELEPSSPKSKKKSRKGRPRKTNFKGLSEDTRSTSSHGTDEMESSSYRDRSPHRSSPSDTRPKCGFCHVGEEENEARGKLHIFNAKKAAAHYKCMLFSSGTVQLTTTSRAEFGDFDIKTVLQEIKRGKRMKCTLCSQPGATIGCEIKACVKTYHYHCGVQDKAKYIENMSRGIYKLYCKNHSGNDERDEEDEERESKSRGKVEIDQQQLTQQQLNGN
UniProt O00443: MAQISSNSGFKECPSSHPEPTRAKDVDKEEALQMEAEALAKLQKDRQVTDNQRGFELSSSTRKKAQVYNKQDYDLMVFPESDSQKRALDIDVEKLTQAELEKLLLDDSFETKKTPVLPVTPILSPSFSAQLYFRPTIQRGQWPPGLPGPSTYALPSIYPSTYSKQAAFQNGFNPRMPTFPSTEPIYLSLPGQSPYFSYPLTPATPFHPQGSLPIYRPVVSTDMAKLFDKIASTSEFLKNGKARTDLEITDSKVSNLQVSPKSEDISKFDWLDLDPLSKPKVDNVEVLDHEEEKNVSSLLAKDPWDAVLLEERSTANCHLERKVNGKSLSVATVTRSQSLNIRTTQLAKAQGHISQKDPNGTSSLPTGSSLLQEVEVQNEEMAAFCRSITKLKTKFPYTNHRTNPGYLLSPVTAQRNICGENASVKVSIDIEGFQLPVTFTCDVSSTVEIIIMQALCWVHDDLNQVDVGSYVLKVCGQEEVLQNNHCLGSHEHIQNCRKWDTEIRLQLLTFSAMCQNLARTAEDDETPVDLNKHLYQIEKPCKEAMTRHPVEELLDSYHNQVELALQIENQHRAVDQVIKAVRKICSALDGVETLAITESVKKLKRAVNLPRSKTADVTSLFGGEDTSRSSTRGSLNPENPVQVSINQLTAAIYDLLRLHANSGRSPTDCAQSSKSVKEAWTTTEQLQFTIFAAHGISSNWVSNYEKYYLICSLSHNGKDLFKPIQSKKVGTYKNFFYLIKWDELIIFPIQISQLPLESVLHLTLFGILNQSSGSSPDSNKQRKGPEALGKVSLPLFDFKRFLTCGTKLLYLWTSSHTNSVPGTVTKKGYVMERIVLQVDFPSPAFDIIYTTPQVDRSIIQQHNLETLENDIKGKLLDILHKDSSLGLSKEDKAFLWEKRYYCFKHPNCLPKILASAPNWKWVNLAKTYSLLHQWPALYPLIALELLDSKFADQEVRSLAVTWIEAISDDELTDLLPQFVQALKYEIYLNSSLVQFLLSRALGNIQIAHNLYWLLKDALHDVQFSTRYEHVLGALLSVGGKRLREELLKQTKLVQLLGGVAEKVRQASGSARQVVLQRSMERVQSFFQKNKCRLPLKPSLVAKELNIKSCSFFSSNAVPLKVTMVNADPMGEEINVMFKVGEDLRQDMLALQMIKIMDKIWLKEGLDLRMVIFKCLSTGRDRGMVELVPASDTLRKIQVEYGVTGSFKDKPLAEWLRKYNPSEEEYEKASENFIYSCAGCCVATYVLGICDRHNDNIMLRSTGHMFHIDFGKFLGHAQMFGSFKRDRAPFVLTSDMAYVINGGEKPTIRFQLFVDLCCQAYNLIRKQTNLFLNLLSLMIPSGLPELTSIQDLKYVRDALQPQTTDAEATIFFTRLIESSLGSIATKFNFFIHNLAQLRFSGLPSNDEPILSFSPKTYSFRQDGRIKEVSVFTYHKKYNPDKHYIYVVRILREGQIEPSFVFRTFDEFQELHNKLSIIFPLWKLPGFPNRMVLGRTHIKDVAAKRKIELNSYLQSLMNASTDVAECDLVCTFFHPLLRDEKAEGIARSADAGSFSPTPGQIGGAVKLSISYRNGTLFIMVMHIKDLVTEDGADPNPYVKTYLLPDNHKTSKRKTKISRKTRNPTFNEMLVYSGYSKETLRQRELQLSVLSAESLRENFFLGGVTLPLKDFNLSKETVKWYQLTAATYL
UniProt Q07864, 1596-1616: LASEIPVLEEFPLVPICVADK
UniProt Q8NBT0: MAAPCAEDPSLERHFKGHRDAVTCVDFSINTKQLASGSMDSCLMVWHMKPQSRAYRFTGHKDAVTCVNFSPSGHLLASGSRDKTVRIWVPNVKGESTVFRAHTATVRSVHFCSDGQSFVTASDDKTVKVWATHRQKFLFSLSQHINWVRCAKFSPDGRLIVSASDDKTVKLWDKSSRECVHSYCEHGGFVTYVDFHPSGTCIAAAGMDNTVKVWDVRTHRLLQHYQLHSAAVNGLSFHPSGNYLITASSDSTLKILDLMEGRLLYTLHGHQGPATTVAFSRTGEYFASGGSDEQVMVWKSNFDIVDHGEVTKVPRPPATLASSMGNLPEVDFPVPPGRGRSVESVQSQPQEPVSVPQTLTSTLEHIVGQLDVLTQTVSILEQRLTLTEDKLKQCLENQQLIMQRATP

What follows are targets tested with ClCC(=O)N[C@H]1CCCc2ccccc12 (assay: log2 mean competition ratio of IA-DTB cysteine labelling (DMSO/compound) (log2 ratio); higher = stronger cysteine engagement by compound). Conditions: 50 µM; treatment time: 4 h; cell line lysate: HEK293T.
Method: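 IA-DTB competitive cysteine chemoproteomics in HEK293T RIPA lysate. Lysates were treated with compound 29 or 30 at 50 or 200 µM for 4 h, then IA-DTB (500 µM, 1 h), trypsin-digested, NeutrAvidin-enriched and analysed by diaPASEF. Competition ratio = intensity DMSO / intensity compound (n=4 treated, n=64 DMSO); binding: mean log2 CR ≥ 1 and p ≤ 0.05 plus QC filters. Target is the cysteine site.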

Row | Target | log2 mean competition ratio
1 | PIK3R4 C693 (UniProt Q99570) | 0.179
2 | PLCB3 C1176 (UniProt Q01970) | -0.376
3 | PHF5A C11 (UniProt Q7RTV0) | 0.359
4 | PLIN2 C47 (UniProt Q99541) | -0.472
5 | PHYHD1 C49 (UniProt Q5SRE7) | -0.218
6 | PLCG2 C624 (UniProt P16885) | 0.665
7 | PIK3C3 C336 (UniProt Q8NEB9) | 0.125
8 | PHF3 C350 (UniProt Q92576) | 0.0221
9 | PLOD1 C484 (UniProt Q02809) | 0.19
10 | POLR1A C1332 (UniProt O95602) | -0.732
11 | PIGK C280 (UniProt Q92643) | 0.243
12 | POLD1 C512 (UniProt P28340) | 0.556
13 | PKNOX1 C326 (UniProt P55347) | 0.287
14 | PLEKHA5 C473 (UniProt Q9HAU0) | 0.191
15 | PLPP6 C55 (UniProt Q8IY26) | 0.12
16 | PITX1 C77 (UniProt P78337) | -0.0708
17 | PIP4P1 C87 (UniProt Q86T03) | -0.769
18 | PIAS3 C418 | -0.0491
19 | PMM1 C145 (UniProt Q92871) | 0.144
20 | PIGW C409 (UniProt Q7Z7B1) | -0.0145
21 | POLR1A C1562 (UniProt O95602) | -0.478
22 | PIK3CD C90 (UniProt O00329) | -0.00896
23 | PKN2 C704 (UniProt Q16513) | -0.0375
24 | PLS1 C142 (UniProt Q14651) | -0.36
25 | PHF6 C305 (UniProt Q8IWS0) | 0.395
26 | PIK3C2A C317 (UniProt O00443) | 0.141
27 | PKN3 C706 (UniProt Q6P5Z2) | -0.113
28 | POLE C1612 (UniProt Q07864) | 0.365
29 | POC1B C306 (UniProt Q8TC44) | 0.361

Same assay, conditions: 200 µM; treatment time: 4 h; cell line lysate: HEK293T

Row | Target | log2 mean competition ratio
30 | PIK3R4 C693 (UniProt Q99570) | 0.214
31 | POC1A C5 (UniProt Q8NBT0) | 0.00216
32 | PLCB3 C1176 (UniProt Q01970) | 0.259
33 | PHF5A C11 (UniProt Q7RTV0) | 0.035
34 | POLR1G C14 | -0.0814
35 | PLIN2 C47 (UniProt Q99541) | -0.118
36 | PHYHD1 C49 (UniProt Q5SRE7) | 0.236
37 | PLCG2 C624 (UniProt P16885) | -0.125
38 | PIK3C3 C336 (UniProt Q8NEB9) | 0.052
39 | PHF3 C350 (UniProt Q92576) | -0.193
40 | PLOD1 C484 (UniProt Q02809) | -0.0391
41 | POLR1A C1332 (UniProt O95602) | -0.116
42 | PIGK C280 (UniProt Q92643) | -0.127
43 | PIK3C2A C908 (UniProt O00443) | -0.203
44 | PLD2 C736 | -0.36
45 | POLD1 C512 (UniProt P28340) | 0.194
46 | PKNOX1 C326 (UniProt P55347) | 0.211
47 | PLEKHA5 C473 (UniProt Q9HAU0) | -0.092

Row | Target | log2 mean competition ratio
48 | PLPP6 C55 (UniProt Q8IY26) | 0.235
49 | PITX1 C77 (UniProt P78337) | -0.352
50 | PIP4P1 C87 (UniProt Q86T03) | 0.00811
51 | PIAS3 C418 | -0.231
52 | PLCXD1 C153 (UniProt Q9NUJ7) | 0.031
53 | PMM1 C145 (UniProt Q92871) | 0.136
54 | PIGW C409 (UniProt Q7Z7B1) | 0.109
55 | POLR1A C1562 (UniProt O95602) | -0.26
56 | PIP4K2C C104 (UniProt Q8TBX8) | -0.116
57 | PIK3CD C90 (UniProt O00329) | -0.162
58 | PKN2 C704 (UniProt Q16513) | 0.126
59 | PLS1 C142 (UniProt Q14651) | 0.0174
60 | PHF6 C305 (UniProt Q8IWS0) | -0.0458
61 | PKP2 C416 (UniProt Q99959) | -0.23
62 | PIK3C2A C317 (UniProt O00443) | -0.166
63 | PKN3 C706 (UniProt Q6P5Z2) | 0.293
64 | POLE C1612 (UniProt Q07864) | -0.776
65 | POC1B C306 (UniProt Q8TC44) | -0.0783
